Values of other authors, collected in publication PMC5728534 (PLoS ONE, 2017).

Test system: OCT2 Ser270 allele
Details: OCT2 Ser270 vs reference; cited from earlier work

## CC(C)[N+]1(C)[C@@H]2CC[C@H]1C[C@@H](OC(=O)C(CO)c1ccccc1)C2 (stereo partly shown) [ipratropium]
  increase of maximal uptake rates with the Ser270 allele: 21%
